Measured values published in patent US4596675A (Monsanto Company, priority 1985, dated 1986).
HELM strings list residues between dots; [ac] is acetyl, [am] amide, other brackets name non-standard units.

Experiment: general procedure: peptide synthesis; EDC/HBT
Conditions: coupling step

Substance: PEPTIDE1{[ac].P.L.G.[SLeu].L.G.[OEt]}$$$$V2.0
- step yield: 73%
